Measured values published in patent publication US20060270591A1, “Androgen receptor coregulators” (priority 2002, published 2006).
No constants are given. Whether binding was seen depends on the method and setting. Some results given as binding are weak or reduced against the parent protein; the word gives no strength.

Chains of the proteins cited; added tags and fusions are not shown. Lines headed by an entry give the natural chain unless they say otherwise; changes in a name come on top.
UniProt Q13772: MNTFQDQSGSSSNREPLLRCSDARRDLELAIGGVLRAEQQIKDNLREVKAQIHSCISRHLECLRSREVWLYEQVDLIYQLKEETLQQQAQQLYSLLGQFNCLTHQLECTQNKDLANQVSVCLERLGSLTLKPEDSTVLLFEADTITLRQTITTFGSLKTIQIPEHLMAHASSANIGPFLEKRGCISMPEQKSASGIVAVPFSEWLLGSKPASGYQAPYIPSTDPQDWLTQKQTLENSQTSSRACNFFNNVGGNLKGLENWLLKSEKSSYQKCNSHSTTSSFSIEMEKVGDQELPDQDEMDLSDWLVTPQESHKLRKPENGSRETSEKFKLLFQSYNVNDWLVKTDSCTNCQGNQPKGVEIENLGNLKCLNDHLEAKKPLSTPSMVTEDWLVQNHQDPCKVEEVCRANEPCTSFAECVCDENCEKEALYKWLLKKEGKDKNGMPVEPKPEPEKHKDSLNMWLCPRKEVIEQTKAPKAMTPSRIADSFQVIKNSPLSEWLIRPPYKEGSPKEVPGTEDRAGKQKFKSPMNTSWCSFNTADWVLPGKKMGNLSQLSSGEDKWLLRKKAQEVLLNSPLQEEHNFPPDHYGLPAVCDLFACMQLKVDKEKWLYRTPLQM
UniProt O95425: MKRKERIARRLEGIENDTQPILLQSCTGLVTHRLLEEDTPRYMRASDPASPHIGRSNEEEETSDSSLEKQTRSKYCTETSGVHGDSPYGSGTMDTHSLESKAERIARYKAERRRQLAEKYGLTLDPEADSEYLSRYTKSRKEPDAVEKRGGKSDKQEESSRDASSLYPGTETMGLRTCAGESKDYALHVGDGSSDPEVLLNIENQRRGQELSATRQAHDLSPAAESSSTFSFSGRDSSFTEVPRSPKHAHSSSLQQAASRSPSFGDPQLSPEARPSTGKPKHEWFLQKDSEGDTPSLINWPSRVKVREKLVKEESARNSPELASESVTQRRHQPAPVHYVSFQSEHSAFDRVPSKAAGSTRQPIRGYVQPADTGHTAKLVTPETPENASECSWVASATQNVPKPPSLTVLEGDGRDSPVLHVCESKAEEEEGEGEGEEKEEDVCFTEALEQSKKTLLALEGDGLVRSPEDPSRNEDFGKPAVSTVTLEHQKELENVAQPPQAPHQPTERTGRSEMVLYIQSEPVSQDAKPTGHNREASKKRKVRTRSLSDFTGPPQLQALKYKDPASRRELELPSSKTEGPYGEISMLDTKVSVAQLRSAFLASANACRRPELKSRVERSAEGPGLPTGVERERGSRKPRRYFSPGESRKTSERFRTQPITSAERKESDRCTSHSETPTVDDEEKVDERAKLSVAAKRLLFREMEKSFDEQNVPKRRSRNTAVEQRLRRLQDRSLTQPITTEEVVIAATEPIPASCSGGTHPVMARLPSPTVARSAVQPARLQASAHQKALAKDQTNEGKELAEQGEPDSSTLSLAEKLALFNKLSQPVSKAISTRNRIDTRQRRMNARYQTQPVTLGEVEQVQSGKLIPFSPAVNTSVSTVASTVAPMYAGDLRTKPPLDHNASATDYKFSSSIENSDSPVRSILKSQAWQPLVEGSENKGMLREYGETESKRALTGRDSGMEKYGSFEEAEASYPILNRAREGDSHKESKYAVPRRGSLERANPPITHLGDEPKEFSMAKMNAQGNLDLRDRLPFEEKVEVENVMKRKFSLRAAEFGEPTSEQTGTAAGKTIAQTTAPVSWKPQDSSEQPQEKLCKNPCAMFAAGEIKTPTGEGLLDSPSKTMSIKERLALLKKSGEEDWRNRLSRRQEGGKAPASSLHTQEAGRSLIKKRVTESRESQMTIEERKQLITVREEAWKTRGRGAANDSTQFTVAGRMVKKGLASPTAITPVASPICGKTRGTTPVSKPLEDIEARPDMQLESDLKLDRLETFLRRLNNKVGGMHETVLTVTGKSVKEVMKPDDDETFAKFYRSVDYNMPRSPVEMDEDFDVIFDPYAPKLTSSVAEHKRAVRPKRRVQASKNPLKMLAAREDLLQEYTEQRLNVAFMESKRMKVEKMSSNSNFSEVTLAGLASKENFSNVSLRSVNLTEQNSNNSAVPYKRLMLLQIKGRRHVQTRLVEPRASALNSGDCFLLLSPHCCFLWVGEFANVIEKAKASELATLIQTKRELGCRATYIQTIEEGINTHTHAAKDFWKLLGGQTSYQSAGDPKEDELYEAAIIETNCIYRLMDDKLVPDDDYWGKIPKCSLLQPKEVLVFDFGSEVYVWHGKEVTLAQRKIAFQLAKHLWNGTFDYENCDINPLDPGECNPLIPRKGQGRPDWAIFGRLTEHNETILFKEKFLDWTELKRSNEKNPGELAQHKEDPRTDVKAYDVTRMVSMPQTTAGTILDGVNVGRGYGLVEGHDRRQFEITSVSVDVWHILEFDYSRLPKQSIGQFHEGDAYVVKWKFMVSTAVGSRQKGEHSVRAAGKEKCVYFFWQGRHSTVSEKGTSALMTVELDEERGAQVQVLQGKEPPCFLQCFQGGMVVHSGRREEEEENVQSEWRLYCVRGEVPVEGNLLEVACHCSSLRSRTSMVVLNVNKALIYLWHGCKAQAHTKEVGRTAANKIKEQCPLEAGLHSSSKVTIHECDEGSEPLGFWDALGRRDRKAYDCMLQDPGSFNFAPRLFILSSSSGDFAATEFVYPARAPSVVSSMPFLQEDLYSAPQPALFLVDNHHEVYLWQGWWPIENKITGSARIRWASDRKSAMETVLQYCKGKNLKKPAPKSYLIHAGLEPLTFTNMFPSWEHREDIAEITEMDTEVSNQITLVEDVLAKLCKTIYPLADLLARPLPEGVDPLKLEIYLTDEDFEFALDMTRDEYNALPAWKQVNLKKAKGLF

Columns and labels:
[1] = target: GAL4 DBD fused LBD of PPARγ (UniProt P04386); experiment: mammalian two-hybrid, DU145, 1 uM 15dJ2
[2] = target: GAL4 DBD fused LBD of PPARγ (UniProt P04386); experiment: mammalian two-hybrid
[3] = target: GAL4 DBD fused with C-terminal fragment (aa 595-918) of wild-type AR (human); experiment: yeast two-hybrid
[4] = target: GAL4 DBD fused with C-terminal fragment (aa 595-918) of wild-type AR (human); experiment: yeast two-hybrid, nutrition selection plates

VP16 fused wild-type ARA70N (aa 1-401) (from UniProt Q13772 1-401)
binding [1]: binds | binding [2]: binds

pACTII-hSV(558-1788): Gal4 AD fused human supervillin a.a. 558-1788 (from UniProt O95425 984-2210)
binding [3]: binds | binding [4]: binds
